The values that follow come from patent US4537924A, “Quadratic acid amide derivatives, their use as stabilizers, and synthetic resins treated therewith” (Chemische Werke Huels, AG, priority 1982, dated 1985).

A short description of data set [1]: Light exposure test with stabilizers in polyether esters, change in viscosity (J value). The following applies: 0.5% by wt. stabilizer in polyether ester.
The nature of data set [2]: Stabilizing effect with polystyrene, yellowness index after irradiation. The following applies: 0.11% by wt. stabilizer.

For the compound `CC1(C)CC(OC(=O)CCCCCCCCC(=O)OC2CC(C)(C)NC(C)(C)C2)CC(C)(C)N1` [Comparative Example A, sebacic acid di-4-hydroxy-2,2,6,6-tetramethylpiperidine ester], the “Decrease in J-value” stood at 5% in data set [1] (after 20 days) and 8% in data set [1] (after 40 days).

Regarding `CC(C)(C)c1ccc(OC(=O)c2cc(C(C)(C)C)c(O)c(C(C)(C)C)c2)c(C(C)(C)C)c1` [H], the “Yellowness index after irradiation period” value in data set [2] (750 hrs., 0-7.5 very low, 10-20 medium-strong, above 20 strong yellowing) turned out to be 12.9; in data set [2] (1230 hrs., without stabilizer 22.1), 18.9.
